Assay results reported in patent US20110190142A1, “DETERMINATION OF RENIN-PRORENIN RECEPTOR ACTIVITY” (Charite- Universitatsmedizin Berlin, priority 2006, published 2011).
For some assays here: Where cells or extracts were used, other partners may take part. For some assays here: A negative result means that nothing was seen under these conditions. Tags and fusion partners may be left off the protein sequences shown.

Tests used:
[1] = target: T1, PLZF (promyelocytic zinc finger protein, ZBTB16) (Homo sapiens) (UniProt Q05516); experiment: EMSA; conditions: protein in an extract
T1 sequence (looked up, limits assumed): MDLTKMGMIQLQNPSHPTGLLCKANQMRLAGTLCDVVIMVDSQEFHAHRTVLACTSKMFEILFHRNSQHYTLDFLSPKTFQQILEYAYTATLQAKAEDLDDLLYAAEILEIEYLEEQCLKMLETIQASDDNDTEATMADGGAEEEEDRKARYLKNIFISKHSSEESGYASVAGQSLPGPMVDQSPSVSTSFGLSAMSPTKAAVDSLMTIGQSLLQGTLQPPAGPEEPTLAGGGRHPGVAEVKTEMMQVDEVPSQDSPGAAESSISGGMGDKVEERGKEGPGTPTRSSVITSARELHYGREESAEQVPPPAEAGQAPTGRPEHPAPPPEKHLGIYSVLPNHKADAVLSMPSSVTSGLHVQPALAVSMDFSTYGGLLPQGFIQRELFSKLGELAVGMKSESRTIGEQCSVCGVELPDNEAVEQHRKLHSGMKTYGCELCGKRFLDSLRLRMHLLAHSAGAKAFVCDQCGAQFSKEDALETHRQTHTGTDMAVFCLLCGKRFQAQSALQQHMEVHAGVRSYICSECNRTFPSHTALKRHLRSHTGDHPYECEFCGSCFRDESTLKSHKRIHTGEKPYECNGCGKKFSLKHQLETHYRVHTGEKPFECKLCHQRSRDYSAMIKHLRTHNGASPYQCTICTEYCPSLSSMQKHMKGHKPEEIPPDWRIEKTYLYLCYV

[2] = target: T2, PLZF-myc (promyelocytic zinc finger protein, ZBTB16) (Homo sapiens) (UniProt Q05516); experiment: activity in cells; conditions: luciferase, protein details: C-terminal myc, pCEP4 (GenBank GI:31543978), only the site is given
T2 sequence (looked up, limits assumed): T1 sequence (looked up, limits assumed)

CTTAACTACAGTTTTCACTGG (double strand) [RER promoter PLZF element, native]
binding result ([1]; super-shift with anti-PLZF antibody): binds | activity on this sequence ([2]; RER promoter repressed about 30% by renin with PLZF cotransfection, RER-dependent): active

CTTTACATCTGTTTTCACTGG (double strand) [RER promoter PLZF element, mutated]
binding result ([1]; mutated PLZF cis-element, variant of RER promoter PLZF element, native): no binding | activity on this sequence ([2]; site mutation in the 1100 bp promoter derepressed activity and abolished renin effect, variant of RER promoter PLZF element, native): > 150%

TTACATGTACTAGTGTTGTGG (double strand) [PI3K-p85alpha promoter PLZF element]
binding result ([1]; positive control, pattern identical to RER native oligo): binds
